# Test results reported in the supplement of paper PMC4862054.
# Most values lie at the level of the controls, where differences are scatter.
# Columns and labels:
# Assay in all cases: normalised response (% of control), CellTox Green; higher = less cell death (100 = DMSO, 0 = benzethonium chloride kill control)
# Conditions in all cases: incubation time: 72 h
# [1] = system: HDQ-P1
# Experimental: (§1)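 DSRT, 72 h incubation, CellTox Green / CellTiter-Glo readout. Signal is normalised to DMSO and benzethonium chloride controls. Value is the normalised response at dose 2.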
# [2] = system: MDA-MB-453
# Experimental: as §1
# [3] = system: CAL-148
# Experimental: as §1
# [4] = system: BT-549
# Experimental: as §1
# [5] = system: CAL-120
# Experimental: as §1
# [6] = system: HCC1143
# Experimental: as §1
# [7] = system: CAL-51
# Experimental: as §1
# [8] = system: DU-4475
# Experimental: as §1
# [9] = system: CAL-85-1
# Experimental: as §1
# [10] = system: MDA-MB-436
# Experimental: as §1
# [11] = system: HCC1937
# Experimental: as §1
# [12] = system: HCC1599
# Experimental: as §1
# [13] = system: MFM-223
# Experimental: as §1
# [14] = system: BT-474
# Experimental: as §1
# [15] = system: Hs578T
# Experimental: as §1
# [16] = system: MDA-MB-468
# Experimental: as §1
# [17] = system: MCF-10A
# Experimental: as §1
# [18] = system: MDA-MB-231
# Experimental: as §1
Compound,normalised response [1] [%],normalised response [2] [%],normalised response [3] [%],normalised response [4] [%],normalised response [5] [%],normalised response [6] [%],normalised response [7] [%],normalised response [8] [%],normalised response [9] [%],normalised response [10] [%],normalised response [11] [%],normalised response [12] [%],normalised response [13] [%],normalised response [14] [%],normalised response [15] [%],normalised response [16] [%],normalised response [17] [%],normalised response [18] [%]
CN(N=O)C(=O)N[C@@H](C=O)[C@@H](O)[C@H](O)[C@H](O)CO [Streptozocin] (10 nM),114,102,111,108,99.9,113,102,101,101,88.7,88.4,106,95.6,106,129,127,92.1,
CN(C)CCN1C(=O)c2cccc3cc(N)cc(c23)C1=O [Amonafide] (10 nM),77.2,107,66.6,102,103,110,110,110,98.4,84.8,108,115,91.3,99.5,97.9,,112,100
C[C@@H](C(=O)O)c1ccc(-c2ccccc2)c(F)c1 [Tarenflurbil] (10 nM),121,101,79.7,95.1,99.7,109,107,96.8,96.5,,75.8,99.5,100,99.4,104,90.8,79,78.2
Cc1c(N)nc([C@H](CC(N)=O)NC[C@H](N)C(N)=O)nc1C(=O)N[C@H](C(=O)N[C@H](C)[C@@H](O)[C@H](C)C(=O)N[C@H](C(=O)NCCc1nc(-c2nc(C(=O)NCCC[S+](C)C)cs2)cs1)[C@@H](C)O)[C@@H](OC1OC(CO)C(O)C(O)C1OC1OC(CO)C(O)C(OC(N)=O)C1O)c1cnc[nH]1 (some centres not stated) [Bleomycin] (10 nM),69.4,93.2,103,99.6,99.2,105,92.6,94.7,97.2,97.7,111,94.3,101,97,110,108,103,102
COc1cc2c(NC3CCN(C(C)C)CC3)nc(N3CCC(F)(F)CC3)nc2cc1OCCCN1CCCC1 [UNC0642] (10 nM),116,95.1,106,104,99.4,107,73.4,93.5,99.1,70.8,99.7,94.1,103,99,116,90.1,98.5,95.5
COc1ccc(S(=O)(=O)Nc2cccnc2Nc2ccc(O)cc2)cc1 [ABT-751] (10 nM),110,106,96.1,105,104,83.3,103,110,99.2,110,98.7,114,99.8,97.4,116,57.2,98.2,98.7
CC[C@@H]1C(=O)N(C)c2cnc(Nc3ccc(C(=O)N[C@H]4CC[C@H](N5CCN(CC6CC6)CC5)CC4)cc3OC)nc2N1C(C)C [Volasertib] (1 nM),104,89.6,,99.4,96.4,83.7,107,95.5,102,82.1,73.2,84.1,76.7,93.7,114,94.7,93.5,105
CO[C@H]1C[C@@H]2CC[C@@H](C)[C@@](O)(O2)C(=O)C(=O)N2CCCC[C@H]2C(=O)O[C@H]([C@H](C)C[C@@H]2CC[C@@H](OP(C)(C)=O)[C@H](OC)C2)CC(=O)[C@H](C)/C=C(\C)[C@@H](O)[C@@H](OC)C(=O)[C@H](C)C[C@H](C)/C=C/C=C/C=C/1C [Ridaforolimus] (0.1 nM),125,106,107,99.7,98.4,122,105,110,96.7,,106,114,93.4,102,,113,107,90.7
NS(=O)(=O)OC[C@@H]1C[C@@H](n2ccc3c(N[C@H]4CCc5ccccc54)ncnc32)C[C@@H]1O [Pevonedistat] (10 nM),108,110,115,105,102,101,98,115,109,84.1,,126,105,105,130,125,114,112
CC(C)C[C@H](NC(=O)[C@H](CCc1ccccc1)NC(=O)CN1CCOCC1)C(=O)N[C@@H](Cc1ccccc1)C(=O)N[C@@H](CC(C)C)C(=O)[C@@]1(C)CO1 [Carfilzomib] (1 nM),,101,106,99.8,102,59.7,91.4,112,98.6,113,114,115,101,89.7,74.8,,99,86.9
CC(C)NC[C@@H](C(=O)N1CCN(c2ncnc3c2[C@H](C)C[C@H]3O)CC1)c1ccc(Cl)cc1 [GDC-0068] (10 nM),102,92.9,83,105,94.6,96.6,106,94.5,98.5,96.3,,99,99.9,102,65.6,120,90,110
COc1cc(F)c(F)c(Nc2ccc(I)cc2F)c1NS(=O)(=O)C1(C[C@H](O)CO)CC1 [Refametinib] (10 nM),109,95.8,102,100,99.8,105,106,96,93.5,77.1,96.2,92.9,100,98.8,,,104,95.3
CNC(=O)c1cc(Oc2ccc(NC(=O)Nc3ccc(Cl)c(C(F)(F)F)c3)cc2)ccn1 [Sorafenib] (1 nM),115,98.8,103,101,95.8,,115,99.2,104,95.1,65.1,98.7,101,100,109,115,51.4,96.9
COC1=CC(c2cc3ccccc3[nH]2)=N/C1=C\c1[nH]c(C)cc1C [Obatoclax] (10 nM),101,95.6,,90.3,100,64,101,95.9,94.8,104,70.7,96.5,94.2,77.2,114,106,100,
CC(=O)c1c(C)c2cnc(Nc3ccc(N4CCNCC4)cn3)nc2n(C2CCCC2)c1=O [Palbociclib] (10 nM),112,95.1,101,102,93.6,102,96.1,95.2,102,97,109,93.2,95.2,94.8,115,,93.3,85.9
Nc1ncn([C@H]2C[C@H](O)[C@@H](CO)O2)c(=O)n1 [Decitabine] (10 nM),,94.9,84.8,110,103,122,90.6,104,99,82.3,96.8,110,92.3,102,111,94.1,108,102

# A different layout for some results above:
Compound | normalised response [1] [%] | normalised response [2] [%] | normalised response [3] [%] | normalised response [4] [%] | normalised response [5] [%] | normalised response [6] [%] | normalised response [7] [%] | normalised response [8] [%] | normalised response [9] [%] | normalised response [10] [%] | normalised response [11] [%] | normalised response [12] [%] | normalised response [13] [%] | normalised response [14] [%] | normalised response [15] [%] | normalised response [16] [%] | normalised response [17] [%] | normalised response [18] [%]
CN(C)CCN1C(=O)c2cccc3cc(N)cc(c23)C1=O [Amonafide] (10 nM) | 77.2 | 107 | 66.6 | 102 | 103 | 110 | 110 | 110 | 98.4 | 84.8 | 108 | 115 | 91.3 | 99.5 | 97.9 |  | 112 | 100
CC(C)C[C@H](NC(=O)[C@H](CCc1ccccc1)NC(=O)CN1CCOCC1)C(=O)N[C@@H](Cc1ccccc1)C(=O)N[C@@H](CC(C)C)C(=O)[C@@]1(C)CO1 [Carfilzomib] (1 nM) |  | 101 | 106 | 99.8 | 102 | 59.7 | 91.4 | 112 | 98.6 | 113 | 114 | 115 | 101 | 89.7 | 74.8 |  | 99 | 86.9
